Among the data in publication PMC13211308, “Chemical genetics reveals Leishmania KKT2 and CRK9 kinase activity is required for cell cycle progression” (PLOS Pathogens, 2026) are binding values, retold here.

By UniProt entry, the sequences of proteins in these tests, tags left out. Where a name states a change or a piece, a line headed by the entry shows the natural chain unless it says otherwise.
UniProt E9ATZ8: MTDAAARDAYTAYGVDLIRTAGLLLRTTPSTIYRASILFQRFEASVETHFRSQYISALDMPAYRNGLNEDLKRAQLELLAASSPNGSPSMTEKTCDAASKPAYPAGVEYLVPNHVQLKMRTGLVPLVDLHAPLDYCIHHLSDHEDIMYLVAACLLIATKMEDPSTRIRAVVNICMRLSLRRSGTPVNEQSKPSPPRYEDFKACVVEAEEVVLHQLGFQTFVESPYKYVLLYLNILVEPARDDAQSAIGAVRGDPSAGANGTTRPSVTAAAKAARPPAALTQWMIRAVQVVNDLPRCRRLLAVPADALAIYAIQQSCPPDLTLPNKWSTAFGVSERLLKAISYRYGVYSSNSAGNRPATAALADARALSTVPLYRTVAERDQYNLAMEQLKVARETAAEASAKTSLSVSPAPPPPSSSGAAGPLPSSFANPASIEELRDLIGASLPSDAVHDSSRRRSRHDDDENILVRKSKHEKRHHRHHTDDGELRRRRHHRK

Results are given in words; binding and its absence hold for the method and conditions named. In cells and extracts the contact can be indirect. These calls come from enrichment with a bait or labelling near it, and not all partners need be listed.

For the assay, the target named is 3xMyc::BirA*::CRK9 (L. mexicana cyclin-dependent kinase CRK9, LmxM.27.1940) (Leishmania mexicana) (UniProt E9AZ98). As to the kind of experiment: proximity labelling; cross-linking BioID (XL-BioID): 3xMyc::BirA*::CRK9 in L. mexicana promastigotes, 150 µM d-biotin 18 h at 25 °C, 1 mM DSP crosslinker 10 min, RIPA lysis, streptavidin beads, LC-MS/MS (DIA); enrichment against the spatial reference 3xMyc::BirA*::BDF7, 1% FDR.

As for “cyclin CYC12 (LmxM.36.5640) (from UniProt E9ATZ8)”, the binding entry is recorded as “binds”.
